{"source": "paper PMC5499549", "about": "“DNA substrate recognition and processing by the full-length human UPF1 helicase”", "key": {"[1]": {"tested_on": "T1, hUPF1 (full-length) (Homo sapiens)", "T1 sequence (looked up)": "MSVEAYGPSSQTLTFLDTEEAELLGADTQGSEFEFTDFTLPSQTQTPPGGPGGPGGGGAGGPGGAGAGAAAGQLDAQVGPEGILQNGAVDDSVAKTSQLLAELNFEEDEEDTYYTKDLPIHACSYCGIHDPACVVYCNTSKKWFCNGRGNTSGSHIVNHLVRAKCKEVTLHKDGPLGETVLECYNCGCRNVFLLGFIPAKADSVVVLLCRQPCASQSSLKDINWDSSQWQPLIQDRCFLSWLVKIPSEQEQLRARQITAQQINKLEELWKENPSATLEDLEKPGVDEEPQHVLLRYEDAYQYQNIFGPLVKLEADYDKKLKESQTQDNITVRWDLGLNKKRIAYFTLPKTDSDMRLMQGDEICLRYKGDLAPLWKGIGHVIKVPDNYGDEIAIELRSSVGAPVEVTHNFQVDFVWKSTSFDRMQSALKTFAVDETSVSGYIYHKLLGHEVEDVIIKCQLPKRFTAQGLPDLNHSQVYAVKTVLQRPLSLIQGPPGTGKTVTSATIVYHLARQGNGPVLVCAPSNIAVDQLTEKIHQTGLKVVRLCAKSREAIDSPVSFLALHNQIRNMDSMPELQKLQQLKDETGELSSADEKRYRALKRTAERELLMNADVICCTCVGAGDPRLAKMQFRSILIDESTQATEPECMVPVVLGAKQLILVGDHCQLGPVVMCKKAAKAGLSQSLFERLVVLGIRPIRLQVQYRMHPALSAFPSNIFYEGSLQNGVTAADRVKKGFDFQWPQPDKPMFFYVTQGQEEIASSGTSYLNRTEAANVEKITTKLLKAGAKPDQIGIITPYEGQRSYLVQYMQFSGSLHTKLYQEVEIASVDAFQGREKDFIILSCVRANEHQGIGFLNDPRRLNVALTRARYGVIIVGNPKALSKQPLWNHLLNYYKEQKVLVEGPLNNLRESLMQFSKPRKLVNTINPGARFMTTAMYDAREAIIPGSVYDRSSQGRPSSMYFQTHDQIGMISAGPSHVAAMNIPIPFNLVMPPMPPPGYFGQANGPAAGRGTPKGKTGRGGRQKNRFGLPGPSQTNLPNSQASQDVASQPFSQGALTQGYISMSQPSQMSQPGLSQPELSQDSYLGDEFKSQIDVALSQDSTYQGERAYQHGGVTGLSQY", "assay": "EMSA", "details": "25 mM HEPES-NaOH pH 7.2, […] NaCl, 2 mM DTT, 1 mg/ml acetylated BSA, 0.1% NP40, 20 min, EMSA 20 C, MST 22 C (20 nM DNA), no nucleotide cofactor or Mg2+ unless stated, recombinant protein, residues 1-1118"}, "[2]": {"tested_on": "T1, hUPF1 (full-length) (Homo sapiens)", "assay": "competition with a labelled probe", "details": "vs 0.25 nM 32P-DNA35, 10 nM hUPF1, >>1000, little competition; 25 mM HEPES-NaOH pH 7.2, […] NaCl, 2 mM DTT, 1 mg/ml acetylated BSA, 0.1% NP40, 20 min; EMSA 20 C, MST 22 C (20 nM DNA); no nucleotide cofactor or Mg2+ unless stated; recombinant protein; residues 1-1118; label: 32P (EMSA), none as competitor; single-stranded DNA"}, "[3]": {"details": "ATP/MgCl2, binding substantially reduced, label: 5' 32P (EMSA), none as competitor, single-stranded DNA"}, "[4]": {"details": "0.2-5 nM hUPF1, label: 32P, single-stranded DNA"}}, "note": "For some assays here: Negatives hold for the conditions tested. Where a protein sequence is shown, tags need not be part of it. For some assays here: Weaker means in comparison with the reference protein, sequence or condition of that experiment. For some assays here: For at least one entry, the source does not settle the construct or the ends of the probe. For some assays here: At least one verdict rests on a figure or table, not on a statement of the authors.", "data": [{"sequence": "AAAAAAAAAAAAAAAAAAAAAAAAAAAAAAAAAAA [d(A)35]", "values": [{"measurement": "binding result", "setting": "[1]; barely detectable, label: 32P (EMSA), none as competitor, single-stranded DNA", "value": "binds more weakly"}, {"measurement": "IC50", "setting": "[2]", "value": "> 1", "unit": "µM"}]}, {"sequence": "ACGTTCTAGAGCGCGCGCCACCCAGCAAACAACACTGGGGGAGGGGGACGGTGAAGGCCAAGTTCCCCGCCAGTCGGCTTAGATCTAGATGCA / TGCATCTAGATCTAAGCCGACTGGCGGGGAACTTGGCCTTCACCGTCCCCCTCCCCCAGTGTTGTTTGCTGGGTGGCGCGCGCTCTAGAACGT / GGAAGCGGTAGGGGGAGGGGG [TripT0 triplex]", "values": [{"measurement": "binding result", "setting": "[1]; 10 mM MgCl2, up to 40 nM hUPF1, label: 5' 32P on third strand, folded or branched DNA", "value": "no binding"}]}, {"sequence": "CACAAGCAACCAATCGGTTCGACACTCATACTGGC (double strand) [dsDNA35]", "values": [{"measurement": "binding result", "setting": "[1]; minimal, similar to G4 DNA, label: 32P", "value": "binds more weakly"}]}, {"sequence": "CACAAGCAACCAATCGGTTCGACACTCATACTGGC [DNA35]", "values": [{"measurement": "binding result", "setting": "[1]; [3]", "value": "binds more weakly"}]}, {"sequence": "GGAAGCGGTAGGGGGAGGGGG [triplex forming oligonucleotide (21 nt)]", "values": [{"measurement": "binding result", "setting": "[1]; 10 mM MgCl2, minor free fraction in TripT0 sample, label: 5' 32P, single-stranded DNA", "value": "no binding"}]}, {"sequence": "TTTTTGGGGTTTTGGGG [ss precursor of G4 DNA]", "values": [{"measurement": "binding result", "setting": "[1]; equivalent to d(T)18, label: 32P, single-stranded DNA", "value": "binds"}]}, {"sequence": "TTTTTTTTTTTTTTT [d(T)15]", "values": [{"measurement": "binding result", "setting": "[1]; [4]", "value": "binds more weakly"}]}, {"sequence": "TTTTTTTTTTTTTTTTTTTTTTTTT [d(T)25]", "values": [{"measurement": "binding result", "setting": "[1]; [4]", "value": "binds"}]}, {"sequence": "TTTTTTTTTTTTTTTTTTTTTTTTTTTTTTTTTTT [d(T)35]", "values": [{"measurement": "binding result", "setting": "[1]; [3]", "value": "binds more weakly"}]}, {"sequence": "UUUUUUUUUUUUUUUUUUUUUUUUUUUUUUUUUUU [(U)35]", "values": [{"measurement": "binding result", "setting": "[1]; ATP/MgCl2, binding substantially reduced, label: 32P (EMSA), none as competitor", "value": "binds more weakly"}]}]}
